Source: article PMC9462471
These are yes or no findings as the source states them, for the method shown. In cells and extracts the contact can be indirect. Some entries that bind do so weakly or less than the wild type.

Sequences of proteins named here, by UniProt entry; tags and fusion partners are left off. Residues count along the entry.
UniProt P35222: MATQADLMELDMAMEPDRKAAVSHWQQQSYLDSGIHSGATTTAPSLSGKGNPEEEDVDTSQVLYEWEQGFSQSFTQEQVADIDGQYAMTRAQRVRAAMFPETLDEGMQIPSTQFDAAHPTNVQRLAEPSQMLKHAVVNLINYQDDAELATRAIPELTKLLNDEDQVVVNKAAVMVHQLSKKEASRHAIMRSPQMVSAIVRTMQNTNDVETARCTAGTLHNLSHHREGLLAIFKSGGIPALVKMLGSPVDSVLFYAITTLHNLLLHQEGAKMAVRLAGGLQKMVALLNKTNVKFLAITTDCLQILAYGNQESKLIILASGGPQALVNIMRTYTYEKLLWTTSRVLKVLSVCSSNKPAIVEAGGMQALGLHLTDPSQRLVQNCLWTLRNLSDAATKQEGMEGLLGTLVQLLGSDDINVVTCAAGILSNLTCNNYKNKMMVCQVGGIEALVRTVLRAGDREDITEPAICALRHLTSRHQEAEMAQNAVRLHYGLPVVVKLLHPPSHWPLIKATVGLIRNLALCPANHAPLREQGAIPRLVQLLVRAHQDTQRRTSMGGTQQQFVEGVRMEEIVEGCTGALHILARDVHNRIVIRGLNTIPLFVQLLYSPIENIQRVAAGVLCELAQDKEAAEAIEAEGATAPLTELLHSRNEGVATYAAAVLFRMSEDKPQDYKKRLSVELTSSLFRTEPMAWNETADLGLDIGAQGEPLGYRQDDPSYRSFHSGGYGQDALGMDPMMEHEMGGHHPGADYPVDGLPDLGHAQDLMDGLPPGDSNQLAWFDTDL
UniProt Q9Y219, residues 24-1238: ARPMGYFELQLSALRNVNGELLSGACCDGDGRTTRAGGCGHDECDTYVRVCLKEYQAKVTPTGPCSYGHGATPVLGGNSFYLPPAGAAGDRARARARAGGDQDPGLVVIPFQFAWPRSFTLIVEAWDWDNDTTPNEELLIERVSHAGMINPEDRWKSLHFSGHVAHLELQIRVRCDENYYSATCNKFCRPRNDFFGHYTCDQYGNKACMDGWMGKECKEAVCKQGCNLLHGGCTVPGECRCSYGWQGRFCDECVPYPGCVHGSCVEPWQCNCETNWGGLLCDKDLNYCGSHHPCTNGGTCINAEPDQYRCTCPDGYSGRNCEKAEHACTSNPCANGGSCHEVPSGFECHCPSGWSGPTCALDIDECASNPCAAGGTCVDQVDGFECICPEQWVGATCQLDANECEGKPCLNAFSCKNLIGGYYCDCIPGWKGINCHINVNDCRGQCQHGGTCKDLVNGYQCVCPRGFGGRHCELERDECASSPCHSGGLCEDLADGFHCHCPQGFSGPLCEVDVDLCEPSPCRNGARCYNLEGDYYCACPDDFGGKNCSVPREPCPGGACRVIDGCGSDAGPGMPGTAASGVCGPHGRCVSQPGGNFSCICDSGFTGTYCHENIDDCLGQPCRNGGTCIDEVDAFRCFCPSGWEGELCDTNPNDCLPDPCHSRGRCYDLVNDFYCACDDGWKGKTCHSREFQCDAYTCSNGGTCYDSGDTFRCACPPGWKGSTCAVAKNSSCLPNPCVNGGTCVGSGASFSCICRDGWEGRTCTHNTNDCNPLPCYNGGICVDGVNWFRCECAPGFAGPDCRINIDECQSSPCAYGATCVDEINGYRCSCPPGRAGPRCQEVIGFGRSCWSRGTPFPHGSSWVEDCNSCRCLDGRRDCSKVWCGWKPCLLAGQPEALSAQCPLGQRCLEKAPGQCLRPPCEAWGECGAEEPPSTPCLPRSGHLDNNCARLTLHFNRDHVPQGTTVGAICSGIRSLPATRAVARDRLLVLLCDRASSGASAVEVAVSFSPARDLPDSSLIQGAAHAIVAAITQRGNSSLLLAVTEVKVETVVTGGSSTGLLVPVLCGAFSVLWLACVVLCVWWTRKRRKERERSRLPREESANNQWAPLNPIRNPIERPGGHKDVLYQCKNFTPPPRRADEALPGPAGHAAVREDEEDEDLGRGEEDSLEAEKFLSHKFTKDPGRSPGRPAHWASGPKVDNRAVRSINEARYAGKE

Molecular target: β-catenin (CTNNB1) (human (endogenous in human bronchial basal cell ALI cultures)) (UniProt P35222)
Assay: co-IP; day 8 ALI culture RIPA lysate; immunoprecipitation with an N-terminus-specific CTNNB1 antibody on Pierce protein magnetic beads at 4°C, washed 3 times with RIPA buffer; precipitate blotted with a JAG2 N-terminus-specific antibody; three samples

binding: binds
Substance: Jagged2 (JAG2) (from UniProt Q9Y219 24-1238) (ligand)
